At least one structure is not confirmed: it was looked up by name or label, or the drawing left a doubt.
What was measured:
Raji target cells = assay: 24-hr lysis assay of inhibitor-treated Leu16 CAR-T cells against Raji; type: cell-based; conditions: three E:T ratios, vs vehicle-treated
Excerpt: FIG. 4A-C. Characterization of pharmacologically treated Leu16 CAR-T cells in vitro. (A) TNF-α production CAR+ T cells in the absence of antigen stimulation as quantified by intracellular flow cytometry. Data bars indicate the means of technical triplicates ±1 S.D. ns not statistically significant. (B) Leu16 CAR-T cell fold expansion after 6 days of inhibitor culture was tracked. The bars in FIGS. 4A and 4B, represent data from, EGFRt, Leu16-28z (vehicle), Leu16-28z (MYCi975), Leu16-28z (Betulin), and Leu16-28z (Rapamycin), respectively, from left to right. (C) A 24-hr lysis assay of CAR-T cells against Raji target cells at three effector-to-target (E:T) ratios. Data bars indicate the means of technical triplicates±1 S.D. Percent lysis was normalized to cell counts in target-only wells.
Cytotoxicity assay with Raji cells. Raji cells were seeded at 2×10^5 cells/well in 96-well U-bottom plate and coincubated with CAR^+ T cells at 1:1, 3.33:1, and 10:1 E:T ratios. Untransduced T cells were added to wells as needed to normalize for differing transduction efficiencies and ensure the total number of T cells per well was consistent throughout. Remaining target cells were quantified by MACSQuant VYB flow cytometer 24-hr post co-incubation.

Raji tumor xenografts = assay: Raji xenograft in NSG mice treated with inhibitor-preconditioned rituximab CAR-T cells; type: in vivo; conditions: human CD45+EGFRt+ cells in peripheral blood, day 8 after first T-cell dose, vs control
Protocol: FIG. 2A-C. […] (A) Tumor signal (in photons/sec/cm^2/sr) in individual animals as quantified by bioluminescence imaging. […] Statistical significance was determined by Mann-Whitney U test with Holm-Sidak correction for multiple comparisons. * p<0.05, n.s. not statistically significant. (B) Kaplan-Meier survival curve (top) and table of median survival period in days (bottom). (C) Frequency of human CD45+EGFRt+ cell in peripheral blood collected from mice on day 8 after first dose of T-cell infusion. Statistical significance was determined by two-tailed Student's t test with Sidak correction for multiple comparisons. * p<0.05, ** p<0.01.
In vivo studies. Six- to eight-week-old NOD/SCID/IL-2Rγ^null (NSG) mice were obtained from UCLA Department of Radiation and Oncology. The protocol was approved by UCLA Institutional Animal Care and Used Committee. […] Details of the dose and timing of tumor injection, T-cell injection, and tumor re-challenge are indicated in the text and figures. Tumor progression/regression was monitored with an IVIS Illumina III LT Imaging System (PerkinElmer). Blood samples were harvested via retro-orbital bleeding 3 days post T-cell injection and every 10-13 days thereafter. Mice were euthanized at the humane endpoint. Bone marrow, spleen and liver were collected after euthanasia. […]

## CO[C@H]1C[C@@H]2CC[C@@H](C)[C@@](O)(O2)C(=O)C(=O)N2CCCC[C@H]2C(=O)O[C@H]([C@H](C)C[C@@H]2CC[C@@H](O)[C@H](OC)C2)CC(=O)[C@H](C)/C=C(\C)[C@@H](O)[C@@H](OC)C(=O)[C@H](C)C[C@H](C)/C=C/C=C/C=C/1C [rapamycin, Rapamycin]
Raji target cells
  lysis of Raji tumor cells: clustered together
Raji tumor xenografts
  in vivo expansion of CAR-T cells: significantly increased

— patent US20250345426A1, “METHODS FOR MAKING AND USING THERAPEUTIC CELLS” (THE REGENTS OF THE UNIVERSITY OF CALIFORNIA, priority 2022, published 2025)
